# Results taken from PubChem BioAssay (NCATS).
# The chains behind the UniProt entries cited, without tags or fusion partners. Where a name states a change or a piece, a line headed by the entry shows the natural chain unless it says otherwise.
# UniProt Q07869: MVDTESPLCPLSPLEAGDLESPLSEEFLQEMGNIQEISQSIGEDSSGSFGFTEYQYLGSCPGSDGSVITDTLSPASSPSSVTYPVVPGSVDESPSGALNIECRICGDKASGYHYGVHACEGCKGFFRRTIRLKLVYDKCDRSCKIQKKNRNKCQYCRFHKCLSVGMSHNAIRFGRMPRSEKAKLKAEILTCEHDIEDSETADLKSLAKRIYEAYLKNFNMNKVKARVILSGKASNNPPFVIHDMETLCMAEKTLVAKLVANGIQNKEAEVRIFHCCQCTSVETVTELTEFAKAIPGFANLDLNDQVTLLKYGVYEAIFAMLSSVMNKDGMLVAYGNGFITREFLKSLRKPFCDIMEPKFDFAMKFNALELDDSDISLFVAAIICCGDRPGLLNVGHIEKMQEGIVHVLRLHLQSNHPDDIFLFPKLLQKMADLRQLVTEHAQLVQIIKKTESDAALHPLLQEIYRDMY
# UniProt P07947, whole entry, looked up: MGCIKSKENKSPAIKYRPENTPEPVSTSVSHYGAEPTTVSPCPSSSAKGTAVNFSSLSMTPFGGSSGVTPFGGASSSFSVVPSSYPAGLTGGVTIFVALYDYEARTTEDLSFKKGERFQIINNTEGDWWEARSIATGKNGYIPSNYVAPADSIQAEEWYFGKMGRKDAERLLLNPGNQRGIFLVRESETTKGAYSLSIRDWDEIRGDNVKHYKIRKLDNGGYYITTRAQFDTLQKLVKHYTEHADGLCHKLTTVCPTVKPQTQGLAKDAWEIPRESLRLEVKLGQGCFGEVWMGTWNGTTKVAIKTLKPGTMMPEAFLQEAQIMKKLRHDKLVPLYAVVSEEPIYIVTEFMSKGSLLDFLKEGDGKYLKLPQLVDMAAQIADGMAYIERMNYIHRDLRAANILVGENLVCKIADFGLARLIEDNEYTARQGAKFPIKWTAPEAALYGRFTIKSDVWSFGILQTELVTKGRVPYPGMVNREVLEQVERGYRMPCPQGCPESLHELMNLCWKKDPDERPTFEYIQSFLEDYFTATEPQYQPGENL
# UniProt P39748, whole entry, looked up: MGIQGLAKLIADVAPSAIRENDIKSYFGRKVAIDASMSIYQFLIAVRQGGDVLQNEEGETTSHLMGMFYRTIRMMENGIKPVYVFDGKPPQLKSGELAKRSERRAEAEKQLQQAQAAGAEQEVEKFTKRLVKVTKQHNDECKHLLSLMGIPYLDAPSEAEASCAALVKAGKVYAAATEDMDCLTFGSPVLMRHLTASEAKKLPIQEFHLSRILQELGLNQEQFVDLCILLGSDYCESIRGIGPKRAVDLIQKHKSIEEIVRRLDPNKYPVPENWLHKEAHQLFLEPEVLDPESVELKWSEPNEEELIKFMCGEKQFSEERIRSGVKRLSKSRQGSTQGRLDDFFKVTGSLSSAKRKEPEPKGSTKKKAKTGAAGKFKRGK
# UniProt P51449: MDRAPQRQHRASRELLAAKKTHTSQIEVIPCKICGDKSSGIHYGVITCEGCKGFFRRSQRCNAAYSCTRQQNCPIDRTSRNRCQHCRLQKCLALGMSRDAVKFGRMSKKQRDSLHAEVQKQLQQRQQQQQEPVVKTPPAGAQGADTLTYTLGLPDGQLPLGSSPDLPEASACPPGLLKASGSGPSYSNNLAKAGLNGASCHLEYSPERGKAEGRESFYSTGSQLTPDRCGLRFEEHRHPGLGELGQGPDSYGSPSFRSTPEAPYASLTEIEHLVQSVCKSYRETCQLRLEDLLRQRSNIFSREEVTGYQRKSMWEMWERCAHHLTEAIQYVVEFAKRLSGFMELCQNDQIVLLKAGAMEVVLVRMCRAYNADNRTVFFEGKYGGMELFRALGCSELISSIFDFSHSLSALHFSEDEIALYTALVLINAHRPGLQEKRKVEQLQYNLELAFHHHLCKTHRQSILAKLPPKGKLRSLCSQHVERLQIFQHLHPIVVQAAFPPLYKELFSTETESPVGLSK
# Where “and” joins values, the source holds several entries; their conditions need not be identical. Equal values may be shown once. The inconclusive results got no clear call from the source; some entries with a clear call stand among them for comparison. A potency beside an inconclusive call is a rough fit, not a confirmed value. For part of these data: A note “side channel” means that the fit belongs to a control or component signal, not to the main read-out. Calls of active or inactive are those of the source. Unless noted, calls follow the shape of the dose curve; as a rule, active = well fitted curve in the direction sought with a large enough effect; inconclusive = small, poorly fitted or top-dose-only effect, or another doubt; inactive = no such curve, though single readings can be large; an effect the other way counts as inactive or inconclusive.
# Tests used:
# [1] = qHTS assay to identify small molecules that stimulate interleukin-8 (IL-8) secretion (AID 651758; active = well fitted activation curve with a large enough effect in the signal ratio; inconclusive = small, poorly fitted or top-dose-only effect, or effect the other way, or a change in a side signal; the % refers to the signal ratio; as to activation: 0% is about no effect); settings: HTRF ratio (665/615); activation: at 92.2 µM (top of the series)
# Procedure, shortened: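 Secreted IL-8 measured by TR-FRET sandwich (cryptate and XL665 antibodies) from THP-1 cells exposed to compound overnight (16 hrs, 37 C).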
# [2] = target: Peroxisome proliferator-activated receptor alpha (Homo sapiens) (UniProt Q07869); assay: qHTS assay for small molecule agonists of the peroxisome proliferator-activated receptor alpha (PPARalpha) signaling pathway (AID 651778); settings: PathHunter PPARalpha complementation, chemiluminescence, 6 h; max response: active compounds read high; as to max response: % of control where 0% means no effect
# Procedure, shortened: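 Chemiluminescence from complemented enzyme reported PPARalpha activation in cells after 6 hr of compound treatment at 37 C. The detection reagent was incubated for 60 min at room temperature, and compounds were scored as agonists.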
# [3] = target: Tyrosine-protein kinase Yes (Homo sapiens) (UniProt P07947); assay: qHTS for small molecule inhibitors of Yes1 kinase: Primary Screen (AID 686947); also: nearly all actives have a fitted effect of over 60% in size
# Procedure, shortened: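 Yes1 (4 nM) preincubated 20 min with compound, then 60 min room-temperature reaction with 0.1 mM ATP and 0.3 mg/mL poly(E4Y) in pH 7.5 Tris, 10 mM MgCl2. ADP measured by ADP-Glo luminescence, normalised to enzyme/no-enzyme controls.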
# [4] = qHTS assay for small molecule disruptors of the mitochondrial membrane potential - 5 hr assay (AID 651755; calls by dose curve; also: nearly all actives have a fitted effect of over 40% in size); settings: JC-1-type ratio dye; ratio change, negative = disruption: at 92.2 µM (top of the series)
# Procedure, shortened: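 HepG2, 2,000 cells/well, overnight attach; cpd or DMSO 5 hr, 37C/5% CO2; Mito-MPS 30 min 37C; fluor 490/535 + 540/590 nm.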
# [5] = target: Flap endonuclease 1 (Homo sapiens) (UniProt P39748); assay: qHTS Assay for the Inhibitors of FEN1: Confirmatory Assay for Cherry-picked Compounds (AID 720498); settings: FEN1 flap cleavage, TAMRA/BHQ2 fluorogenic DNA substrate; also: nearly all actives have a fitted effect of over 60% in size
# Procedure, shortened: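 FEN1 at 10 nM was preincubated with compound for 15 min at room temperature, then 50 nM (final) double-flap DNA substrate was added. TAMRA fluorescence released from the BHQ-2-quenched flap was read at 0 and 15 min (ex 525/em 598 nm).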
# [6] = qHTS assay for small molecule disruptors of the mitochondrial membrane potential - 1 hr assay (AID 651754; calls by dose curve; also: nearly all actives have a fitted effect of over 35% in size); settings: ratio change, negative = depolarisation: at 92.2 µM (top of the series)
# Procedure, shortened: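 HepG2 cells, attached overnight, were exposed to compound for 1 hr at 37C, then stained 30 min with a potentiometric dye. Ratio of red aggregate (590nm) to green monomer (535nm) fluorescence reports membrane potential; collapse shifts signal toward green.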
# [7] = target: Nuclear receptor ROR-gamma (Homo sapiens) (UniProt P51449); assay: qHTS assay for small molecule antagonists of the retinoid-related orphan receptor gamma (ROR-gamma) signaling pathway (AID 651802); also: nearly all actives have a fitted effect of over 60% in size
# Procedure, shortened: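 CHO cells with TET-inducible ROR-gamma and RORE-luciferase reporter, dosed then doxycycline-induced. After 16 h at 37C, One-Glo luminescence read; decreased signal indicates antagonism.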
# [8] = qHTS assay for small molecule activators of the nuclear factor-kappa B (NF-kB) signaling pathway (AID 651749; active = well fitted activation curve with a large enough effect in the signal ratio; inconclusive = small, poorly fitted or top-dose-only effect, or a change in a side signal; the % refers to the signal ratio; as to activation: % of control where 0% means no effect); settings: NF-kB-bla ME-180 cells, beta-lactamase FRET ratio, 16 h; activation: active compounds read high
# Procedure, shortened: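 Readout: beta-lactamase reporter driven by an NF-kB response element, detected fluorescently as loss of FRET. Cells were the ME-180 line, treated 16 hr at 37C with pin-transferred compound.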
# Potency is read from the fitted curve at half-maximal effect.
smiles,measurement,setting,value
Oc1ccc(Cl)cc1Cc1ccccc1,activation,[1],inconclusive: 32.2%
CO/C=C(/C(=O)OC)c1ccccc1Oc1cc(Oc2ccccc2C#N)ncn1,Potency,[2],"inconclusive: 20 µM [activator, partial curve]"
CCCCCl,activation,[1],inconclusive: 10.8%
CCCCCCCCc1ccc(O)cc1,activation,[1],inconclusive: -3.05%
COc1cc(OC)c(OC)cc1C=O,activation,[1],inconclusive: -16.9%
CC(C)c1cccc(C(C)C)c1O,activation,[1],inconclusive: 3.14%
O=C(O)COc1ccccc1,Potency,[1],inactive
O=C(O)C(=O)c1cn(Cc2ccccc2)c2ccc(-c3ccc(OC(F)(F)F)cc3)cc12,Potency,[3],"inconclusive: 43.4 µM [inhibitor, single point]"
Nc1ccccc1C(=O)O,activation,[1],inconclusive: -3.01%
O=[N+]([O-])c1cc([N+](=O)[O-])c2ccccc2c1,Potency,[4],"inconclusive: 37.6 µM [inhibitor, partial curve]"
same,activation,[1],inconclusive: 89.8%
NCCc1cc(O)c(O)cc1O,Potency,[5],"inconclusive: 60.1 µM [inhibitor, partial curve]"
Oc1c(Br)cc(Br)cc1Br,Potency,[6],"inconclusive: 47.3 µM [inhibitor, partial curve, poor fit]"
same,activation,[1],inconclusive: 26.2%
same,Potency,[2],active: 39.8 µM and active: 35.5 µM
same,Potency,[7],"inconclusive: 75 µM [inhibitor, single point]"
C[C@@H]1C[C@@H]([C@H](O)CC2CC(=O)NC(=O)C2)C(=O)[C@@H](C)C1,Potency,[8],"inconclusive: 501 nM [side channel, falling, full curve, poor fit] and inconclusive: 89.1 nM [side channel, falling, full curve, poor fit]"
same,activation,[8],inactive: 5.34%
same,Potency,[1],"inconclusive: 75 µM [inhibitor, single point]"
same,activation,[1],inconclusive: -27.5%
same,max response,[2],inactive: -1.34% and inactive: -7.61% and inactive: -0.958%

# In another format: results already given
smiles	measurement	setting	value
C[C@@H]1C[C@@H]([C@H](O)CC2CC(=O)NC(=O)C2)C(=O)[C@@H](C)C1	activation	[8]	inactive: 5.34%
same	Potency	[1]	inconclusive: 75 µM [inhibitor, single point]
